Experimental data: patent publication US20180127480A1
These are yes or no findings as the source states them, for the method shown. Some results given as binding are weak or reduced against the parent protein; the word gives no strength.

The chains behind the UniProt entries cited, without tags or fusion partners. Residues count along the entry.
UniProt P78324, residues 31-149: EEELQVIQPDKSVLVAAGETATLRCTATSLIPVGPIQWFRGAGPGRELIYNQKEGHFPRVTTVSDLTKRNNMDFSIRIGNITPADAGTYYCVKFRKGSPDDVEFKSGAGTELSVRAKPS

B1: biotinylated WT CD47 (ligand)
chain: QLLFNKTKSVEFTFGNDTVVIPCFVTNMEAQNTTEVYVKWKFKGRDIYTFDGALNKSTVPTDFSSAKIEVSQLLKGDASLKMDKSDAVSHTGNYTCEVTELTREGETIIELKYRVVSGLNDIFEAQKIEWHE
modifications: biotin on the biotin acceptor peptide tag (BirA ligase)
B2: biotinylated high affinity CD47 variant N3612 C15G (designed binder)
chain: WQPPLLFNKTKSVEFTFGNDTVVIPCFVTNMEAQNTTEVYVKWKFKGRDIYTFDGQANKSTVPTDFSSAKIEVSQLLKGDASLKMDKSDAVSHTGNYTCEVTELTREGETIIELKYRVVSGLNDIFEAQKIEWHE
modifications: biotin on the biotin acceptor peptide tag (BirA ligase)

Legend:
[1] = molecular target: SIRPα a1d1 expressed on yeast (human) (UniProt P78324); assay: titration on SIRPα-displaying yeast, flow cytometry
[2] = molecular target: SIRPα a1d1 expressed on yeast (human) (UniProt P78324); assay: titration on SIRPα-displaying yeast, flow cytometry; wild type is the weaker one
[3] = molecular target: SIRPα a1d1 expressed on yeast (human) (UniProt P78324); assay: flow cytometry titration on yeast expressing SIRPα a1d1

| Binder | binding [1] | binding [2] | binding [3] |
| --- | --- | --- | --- |
| B1 | binds | binds | binds |
| B2 | binds | – | binds |
